Reference: publication PMC13292255
No constants are given. Whether binding was seen depends on the method and setting. In cells and extracts the contact can be indirect. These calls come from enrichment with a bait or labelling near it, and not all partners need be listed.

Protein sequences, listed by entry. Tags and fused reporters are not part of them. Residues count along the entry.
UniProt P55058, residues 18-493: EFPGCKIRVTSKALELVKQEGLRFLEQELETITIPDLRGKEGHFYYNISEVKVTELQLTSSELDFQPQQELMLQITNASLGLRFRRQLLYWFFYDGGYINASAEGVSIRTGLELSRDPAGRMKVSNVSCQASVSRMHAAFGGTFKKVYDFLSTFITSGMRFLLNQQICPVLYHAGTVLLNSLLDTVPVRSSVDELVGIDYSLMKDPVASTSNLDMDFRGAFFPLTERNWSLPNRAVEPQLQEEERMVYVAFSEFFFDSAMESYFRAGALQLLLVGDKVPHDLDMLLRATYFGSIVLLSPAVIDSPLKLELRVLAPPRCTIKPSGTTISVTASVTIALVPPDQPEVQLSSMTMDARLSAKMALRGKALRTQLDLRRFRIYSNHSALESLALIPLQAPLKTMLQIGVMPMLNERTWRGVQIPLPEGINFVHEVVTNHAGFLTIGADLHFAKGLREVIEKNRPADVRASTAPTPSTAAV
UniProt O14965: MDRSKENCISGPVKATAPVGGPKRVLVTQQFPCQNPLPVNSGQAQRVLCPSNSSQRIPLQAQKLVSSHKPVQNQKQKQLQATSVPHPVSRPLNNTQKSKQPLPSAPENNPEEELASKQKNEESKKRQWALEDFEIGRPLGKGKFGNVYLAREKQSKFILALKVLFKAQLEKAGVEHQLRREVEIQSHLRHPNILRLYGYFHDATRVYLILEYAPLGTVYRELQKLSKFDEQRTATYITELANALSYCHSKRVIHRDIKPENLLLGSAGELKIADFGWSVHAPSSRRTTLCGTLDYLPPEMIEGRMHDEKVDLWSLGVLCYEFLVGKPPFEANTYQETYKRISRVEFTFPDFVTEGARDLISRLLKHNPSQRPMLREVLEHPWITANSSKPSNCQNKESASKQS

Target: Phospholipid transfer protein (PLTP) (human (endogenous in HCC cell lines)) (UniProt P55058)
Experiment: affinity purification with mass spectrometry; proteins immunoprecipitated with a PLTP antibody, analysed by LC-MS/MS (Figure 4E, 4F)

binding: binds
Substance: Aurora kinase A (AURKA) (from UniProt O14965 1-403) (enzyme)
